From paper doi:10.1101/723940
No constants are given. Whether binding was seen depends on the method and setting. Binding seen in cells or lysates may run through a third protein. A yes stands for co-enrichment or nearness to the bait. Other partners may have been found.

By UniProt entry, the sequences of proteins in these tests, tags left out.
UniProt Q9Y696: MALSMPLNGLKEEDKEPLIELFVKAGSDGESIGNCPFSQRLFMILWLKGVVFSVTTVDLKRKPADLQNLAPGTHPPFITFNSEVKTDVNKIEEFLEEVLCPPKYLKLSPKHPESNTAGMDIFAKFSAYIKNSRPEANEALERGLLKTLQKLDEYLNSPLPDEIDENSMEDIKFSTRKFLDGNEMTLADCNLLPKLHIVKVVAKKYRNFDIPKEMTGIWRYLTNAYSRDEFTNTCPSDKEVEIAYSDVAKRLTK
UniProt Q9P289: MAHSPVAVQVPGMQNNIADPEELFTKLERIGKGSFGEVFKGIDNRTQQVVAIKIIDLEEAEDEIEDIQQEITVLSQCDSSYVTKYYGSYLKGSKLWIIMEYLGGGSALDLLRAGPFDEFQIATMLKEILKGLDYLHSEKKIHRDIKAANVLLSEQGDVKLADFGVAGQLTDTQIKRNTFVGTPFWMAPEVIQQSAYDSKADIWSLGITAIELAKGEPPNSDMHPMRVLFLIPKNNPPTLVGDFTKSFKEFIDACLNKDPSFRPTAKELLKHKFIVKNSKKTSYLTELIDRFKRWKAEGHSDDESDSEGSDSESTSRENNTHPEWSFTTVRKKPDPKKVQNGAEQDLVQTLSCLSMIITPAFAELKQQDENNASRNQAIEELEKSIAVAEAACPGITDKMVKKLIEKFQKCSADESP

Biological target: GFP-CLIC4 (pLVX:GFP-CLIC4) (UniProt Q9Y696)
Assay: affinity purification with mass spectrometry

For “MST4 kinase (from UniProt Q9P289 1-416) (enzyme)”, the binding was “binds”.
